# Where “and” joins values, the source holds several entries; their conditions need not be identical. Equal entries are not always repeated. This is one part of the list. Repeats in this data set agree poorly, so a single value says little.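 HEK293T cells were given each compound shortly before transfection with a reporter in which red mCherry is followed by the SARS-CoV-2 frameshift element and then GFP in the −1 frame, so GFP appears only after frameshifting.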
# Test system: HEK293T
# Assay: percent viability (nuclei count) relative to control; higher = more viable cells
# Settings: 10 µM; 24 h
row,SMILES,percent viability
1,CC(=O)OCC(=O)[C@H]1CC[C@H]2[C@@H]3CCC4=CC(=O)CC[C@]4(C)[C@H]3CC[C@]12C,246%
2,O=C(O)[C@H](CC(=O)N1C[C@H]2CCCC[C@H]2C1)Cc1ccccc1 [mitiglinide],153%
3,NS(=O)(=O)c1cc2c(cc1Cl)NCNS2(=O)=O [hydrochlorothiazide],172%
4,CCN(CC)c1nc(=NN)nc(N(CC)CC)[nH]1 [meladrazine],45.4%
5,CCN(CC)CCOC(=O)C(c1ccccc1)c1ccccc1 [adiphenine],113%
6,CCCCN1CCCC[C@H]1C(=O)Nc1c(C)cccc1C [levobupivacaine],231%
7,NC(=O)CC[C@@H]1NC(=O)[C@H](Cc2ccccc2)NC(=O)[C@H](Cc2ccc(O)cc2)NC(=O)[C@@H](N)CSSC[C@@H](C(=O)N2CCC[C@H]2C(=O)N[C@@H](CCCN=C(N)N)C(=O)NCC(N)=O)NC(=O)[C@H](CC(N)=O)NC1=O [argipressin],207%
8,NC(CO)C(=O)NNCc1ccc(O)c(O)c1O (stereo not drawn) [benserazide],350% and 251%
9,CC(=O)N(c1onc(C)c1C)S(=O)(=O)c1ccc(N)cc1,270%
10,COc1ccc2c3c1O[C@H]1C[C@@H](O)C=C[C@@]31CCN(C)C2 [galantamine],235% and 152%
11,CCCCCCCC/C=C\CCCCCCCC(=O)NCc1ccc(O)c(OC)c1 [olvanil],153%
12,CC(O)(P(=O)(O)O)P(=O)(O)O,393%
13,C[C@@H]1C[C@H]2[C@@H]3CCC4=CC(=O)C=C[C@]4(C)[C@@]3(Cl)[C@@H](O)C[C@]2(C)[C@@]1(O)C(=O)CCl [mometasone],334%

# From the supplement of paper PMC8256030
